Structures can show the parent of a compound that is named as a salt. ± gives the standard deviation of the averaged measurements. Some of the results follow. Plates or batches differ in their baseline, so values are only roughly comparable.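 The cells are a mouse kidney inner medullary collecting duct line, silenced either for the ciliary gene Rpgrip1l or with a non-targeting control siRNA.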
system: mIMCD3; test: robust z score of cilia incidence (% cells with single cilium) vs plate controls; higher = more ciliated cells; conditions: 10 µM; 48 h; siRNA: siScr

Structure (SMILES)	robust z score of cilia incidence
O=C(c1ccc(Nc2nccc(-c3cc4ccccc4s3)n2)cc1)N1CCC(N2CCCC2)CC1	-66.7 ± 16
O=C(O)C1=CCCN(CCON=C(c2ccccc2)c2ccccc2)C1	1.76 ± 2.6
CCCC[C@@H](C=O)NC(=O)[C@H](CC(C)C)NC(=O)OCc1ccccc1 [Calpeptin]	0.752 ± 1.1
O=C1Nc2ccc(I)cc2/C1=C/c1cc(Br)c(O)c(Br)c1	-44.9 ± 1.8
Cc1nc2sccn2c(=O)c1CCN1CCC(=C(c2ccccc2)c2ccc(F)cc2)CC1	-30.7 ± 13
Cc1cc(I)ccc1Nc1c(C(=O)NOCC2CC2)cc(F)c(F)c1F	-66.3 ± 15
COc1ccc(NS(=O)(=O)c2ccc(I)cc2)cc1N1CCN(C)CC1	-8.75 ± 9.1
CNC(=O)[C@H]1O[C@@H](n2cnc3c(NCc4cccc(I)c4)nc(Cl)nc32)[C@H](O)[C@@H]1O	-6.43 ± 5.7
C1CCC2(CC1)CCNCC2 [4,4-Pentamethylenepiperidine hydrochloride]	-15.7 ± 21
OC1CCC(Nc2nc(-c3ccccc3)nc3[nH]ccc23)CC1 (stereo not given)	-7.2 ± 5.8
CC[C@H](CO)Nc1nc(Nc2cccc(-c3ccccn3)c2)c2ncn(C(C)C)c2n1 [(R)-DRF053 dihydrochloride]	0.788 ± 0.66
CNCCCC12CCC(c3ccccc31)c1ccccc12 [Maprotiline hydrochloride]	-26.9 ± 4.8
O=C(O)c1cc(=O)c2c(Cl)cc(Cl)cc2[nH]1 [5,7-Dichlorokynurenic acid]	-0.303 ± 2.3
CCC(NC(C)C)C(O)c1ccc(O)c2[nH]c(=O)ccc12 (stereo not given) [Procaterol hydrochloride]	-0.371 ± 0.72
COCC(=O)O[C@]1(CCN(C)CCCc2nc3ccccc3[nH]2)CCc2cc(F)ccc2[C@@H]1C(C)C [Mibefradil dihydrochloride]	-33.3 ± 15

A section from further up, for reference:
Structure (SMILES)	robust z score of cilia incidence
CCC(NC(C)C)C(O)c1ccc(O)c2[nH]c(=O)ccc12 (stereo not given) [Procaterol hydrochloride]	-0.371 ± 0.72
COCC(=O)O[C@]1(CCN(C)CCCc2nc3ccccc3[nH]2)CCc2cc(F)ccc2[C@@H]1C(C)C [Mibefradil dihydrochloride]	-33.3 ± 15

— the supplement of paper PMC12009310
